We go through 31 targets from the supplement of paper PMC12819154, “High-throughput peptide-centric local stability assay extends protein–ligand identification to membrane proteins, tissues and bacteria” (Nature Structural & Molecular Biology, 2025).

Amino acid sequences for entries named in this document (tags omitted). A change or cut given only in a name is not applied to a line headed by its entry.
UniProt P38060: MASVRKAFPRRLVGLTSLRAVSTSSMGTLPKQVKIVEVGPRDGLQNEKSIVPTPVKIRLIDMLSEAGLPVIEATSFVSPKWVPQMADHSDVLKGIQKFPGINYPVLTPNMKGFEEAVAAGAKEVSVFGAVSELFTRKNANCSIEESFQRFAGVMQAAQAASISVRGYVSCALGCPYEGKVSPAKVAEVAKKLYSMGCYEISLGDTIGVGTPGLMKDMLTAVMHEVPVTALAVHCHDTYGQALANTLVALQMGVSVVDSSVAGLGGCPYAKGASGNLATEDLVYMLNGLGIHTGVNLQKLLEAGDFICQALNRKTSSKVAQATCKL
UniProt P43276, whole entry: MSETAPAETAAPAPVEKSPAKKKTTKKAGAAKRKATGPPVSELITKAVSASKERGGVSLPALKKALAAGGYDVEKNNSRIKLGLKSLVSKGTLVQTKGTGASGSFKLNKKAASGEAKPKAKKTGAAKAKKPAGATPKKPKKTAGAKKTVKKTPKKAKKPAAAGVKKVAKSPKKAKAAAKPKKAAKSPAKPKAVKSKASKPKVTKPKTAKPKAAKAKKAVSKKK
UniProt P35802: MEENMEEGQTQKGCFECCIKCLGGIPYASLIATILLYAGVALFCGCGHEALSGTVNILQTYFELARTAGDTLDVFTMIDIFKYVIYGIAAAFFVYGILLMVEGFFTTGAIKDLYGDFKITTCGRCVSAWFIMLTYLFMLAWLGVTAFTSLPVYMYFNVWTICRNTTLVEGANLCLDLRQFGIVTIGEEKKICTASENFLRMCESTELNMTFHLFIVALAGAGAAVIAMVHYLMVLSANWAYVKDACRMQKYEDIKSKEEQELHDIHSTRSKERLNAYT
UniProt P47876: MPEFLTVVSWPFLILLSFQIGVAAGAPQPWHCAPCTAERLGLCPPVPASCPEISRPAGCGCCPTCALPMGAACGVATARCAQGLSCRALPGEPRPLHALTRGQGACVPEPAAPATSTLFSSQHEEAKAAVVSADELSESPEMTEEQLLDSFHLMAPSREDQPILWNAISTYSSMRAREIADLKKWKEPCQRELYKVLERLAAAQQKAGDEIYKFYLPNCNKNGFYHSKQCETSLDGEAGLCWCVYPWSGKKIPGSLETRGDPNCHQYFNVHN
UniProt P41245: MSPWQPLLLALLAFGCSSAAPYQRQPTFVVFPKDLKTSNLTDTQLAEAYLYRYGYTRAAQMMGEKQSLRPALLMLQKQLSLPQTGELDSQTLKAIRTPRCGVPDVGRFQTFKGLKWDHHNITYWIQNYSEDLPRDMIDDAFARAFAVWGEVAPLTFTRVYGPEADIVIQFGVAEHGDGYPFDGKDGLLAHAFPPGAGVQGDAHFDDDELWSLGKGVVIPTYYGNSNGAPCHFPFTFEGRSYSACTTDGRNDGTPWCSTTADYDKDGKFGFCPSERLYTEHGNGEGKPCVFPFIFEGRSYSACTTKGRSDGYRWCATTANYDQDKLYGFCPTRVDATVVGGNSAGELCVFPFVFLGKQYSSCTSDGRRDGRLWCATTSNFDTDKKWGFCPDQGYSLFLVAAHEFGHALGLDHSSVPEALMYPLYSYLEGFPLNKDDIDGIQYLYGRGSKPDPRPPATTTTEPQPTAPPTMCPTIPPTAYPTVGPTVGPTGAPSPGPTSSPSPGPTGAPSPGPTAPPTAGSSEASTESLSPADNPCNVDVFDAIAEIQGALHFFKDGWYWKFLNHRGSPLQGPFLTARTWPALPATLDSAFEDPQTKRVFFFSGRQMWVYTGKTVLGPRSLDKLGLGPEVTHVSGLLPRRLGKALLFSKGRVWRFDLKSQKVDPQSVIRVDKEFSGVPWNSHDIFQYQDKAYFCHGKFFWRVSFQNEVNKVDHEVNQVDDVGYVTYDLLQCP
UniProt P35951: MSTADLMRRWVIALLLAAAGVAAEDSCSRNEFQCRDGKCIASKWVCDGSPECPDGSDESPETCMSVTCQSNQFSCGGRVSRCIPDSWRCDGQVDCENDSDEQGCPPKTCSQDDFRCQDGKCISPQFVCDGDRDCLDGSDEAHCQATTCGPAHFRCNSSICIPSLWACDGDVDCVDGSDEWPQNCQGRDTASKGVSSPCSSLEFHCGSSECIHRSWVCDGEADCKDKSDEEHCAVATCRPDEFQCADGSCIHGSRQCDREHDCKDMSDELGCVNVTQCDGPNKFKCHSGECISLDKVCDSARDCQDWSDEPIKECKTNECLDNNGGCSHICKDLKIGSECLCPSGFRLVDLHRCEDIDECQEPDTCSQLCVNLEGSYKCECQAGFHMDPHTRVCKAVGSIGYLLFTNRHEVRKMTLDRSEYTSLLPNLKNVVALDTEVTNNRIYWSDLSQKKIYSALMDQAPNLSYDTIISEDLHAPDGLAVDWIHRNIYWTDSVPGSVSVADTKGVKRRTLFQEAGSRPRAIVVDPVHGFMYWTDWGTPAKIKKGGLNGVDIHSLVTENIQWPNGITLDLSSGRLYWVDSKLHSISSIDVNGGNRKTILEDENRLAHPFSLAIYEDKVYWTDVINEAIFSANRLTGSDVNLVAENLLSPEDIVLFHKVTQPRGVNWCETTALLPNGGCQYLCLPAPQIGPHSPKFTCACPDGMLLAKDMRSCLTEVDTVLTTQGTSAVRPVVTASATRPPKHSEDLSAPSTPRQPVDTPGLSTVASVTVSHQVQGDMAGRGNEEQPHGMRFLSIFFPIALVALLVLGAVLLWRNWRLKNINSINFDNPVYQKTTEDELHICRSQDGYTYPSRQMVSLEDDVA
UniProt P52927: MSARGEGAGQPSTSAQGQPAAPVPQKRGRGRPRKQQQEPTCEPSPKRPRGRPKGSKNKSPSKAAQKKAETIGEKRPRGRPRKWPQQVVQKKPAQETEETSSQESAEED
UniProt P48428: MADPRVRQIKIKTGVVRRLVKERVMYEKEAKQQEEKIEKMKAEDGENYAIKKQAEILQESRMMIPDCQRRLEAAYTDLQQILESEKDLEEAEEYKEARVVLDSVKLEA
UniProt P50427: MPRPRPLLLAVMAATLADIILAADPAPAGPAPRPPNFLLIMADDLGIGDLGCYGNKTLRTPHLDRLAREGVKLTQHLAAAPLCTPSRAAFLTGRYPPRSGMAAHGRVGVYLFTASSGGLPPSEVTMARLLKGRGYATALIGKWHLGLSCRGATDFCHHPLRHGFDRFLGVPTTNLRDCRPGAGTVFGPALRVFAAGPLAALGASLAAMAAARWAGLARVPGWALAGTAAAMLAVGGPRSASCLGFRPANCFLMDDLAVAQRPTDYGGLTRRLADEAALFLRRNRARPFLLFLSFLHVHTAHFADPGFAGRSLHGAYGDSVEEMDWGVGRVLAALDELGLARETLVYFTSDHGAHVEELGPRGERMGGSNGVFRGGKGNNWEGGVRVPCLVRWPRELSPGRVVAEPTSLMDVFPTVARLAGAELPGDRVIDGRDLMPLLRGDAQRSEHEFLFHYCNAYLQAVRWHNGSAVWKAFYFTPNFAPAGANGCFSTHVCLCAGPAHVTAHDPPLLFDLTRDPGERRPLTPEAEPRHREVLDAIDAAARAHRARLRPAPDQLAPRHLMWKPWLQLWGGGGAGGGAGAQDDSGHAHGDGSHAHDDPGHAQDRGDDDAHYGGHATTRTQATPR
UniProt P40224, whole entry: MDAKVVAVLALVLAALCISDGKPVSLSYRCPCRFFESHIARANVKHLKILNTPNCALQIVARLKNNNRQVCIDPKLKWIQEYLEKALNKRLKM
UniProt P35492: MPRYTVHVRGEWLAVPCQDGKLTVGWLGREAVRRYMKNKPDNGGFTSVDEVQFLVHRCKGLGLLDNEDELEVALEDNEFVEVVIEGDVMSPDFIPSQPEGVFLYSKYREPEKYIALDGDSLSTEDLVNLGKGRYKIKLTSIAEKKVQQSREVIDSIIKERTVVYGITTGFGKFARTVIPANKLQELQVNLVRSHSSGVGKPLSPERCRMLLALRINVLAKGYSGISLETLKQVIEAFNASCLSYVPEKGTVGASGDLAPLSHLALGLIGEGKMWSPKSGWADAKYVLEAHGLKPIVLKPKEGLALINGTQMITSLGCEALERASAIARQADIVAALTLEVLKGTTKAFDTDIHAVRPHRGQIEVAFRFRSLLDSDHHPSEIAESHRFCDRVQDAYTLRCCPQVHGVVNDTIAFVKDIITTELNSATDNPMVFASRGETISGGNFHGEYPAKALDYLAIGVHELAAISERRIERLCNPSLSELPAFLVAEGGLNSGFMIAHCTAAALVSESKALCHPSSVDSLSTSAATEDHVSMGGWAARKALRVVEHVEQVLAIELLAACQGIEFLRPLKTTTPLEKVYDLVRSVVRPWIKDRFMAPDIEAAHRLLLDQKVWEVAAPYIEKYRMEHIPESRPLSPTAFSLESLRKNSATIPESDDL
UniProt P48776: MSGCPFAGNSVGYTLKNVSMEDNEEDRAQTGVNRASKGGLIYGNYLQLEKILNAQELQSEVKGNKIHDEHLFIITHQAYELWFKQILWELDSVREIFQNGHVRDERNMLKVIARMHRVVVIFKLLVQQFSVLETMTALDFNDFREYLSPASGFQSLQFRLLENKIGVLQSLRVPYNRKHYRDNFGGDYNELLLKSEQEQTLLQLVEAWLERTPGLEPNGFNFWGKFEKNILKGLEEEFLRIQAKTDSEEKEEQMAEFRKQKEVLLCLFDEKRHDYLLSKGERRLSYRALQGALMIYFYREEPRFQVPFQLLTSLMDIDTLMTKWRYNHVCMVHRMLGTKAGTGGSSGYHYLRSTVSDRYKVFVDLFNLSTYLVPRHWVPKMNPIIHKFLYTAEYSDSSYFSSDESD
UniProt P50580: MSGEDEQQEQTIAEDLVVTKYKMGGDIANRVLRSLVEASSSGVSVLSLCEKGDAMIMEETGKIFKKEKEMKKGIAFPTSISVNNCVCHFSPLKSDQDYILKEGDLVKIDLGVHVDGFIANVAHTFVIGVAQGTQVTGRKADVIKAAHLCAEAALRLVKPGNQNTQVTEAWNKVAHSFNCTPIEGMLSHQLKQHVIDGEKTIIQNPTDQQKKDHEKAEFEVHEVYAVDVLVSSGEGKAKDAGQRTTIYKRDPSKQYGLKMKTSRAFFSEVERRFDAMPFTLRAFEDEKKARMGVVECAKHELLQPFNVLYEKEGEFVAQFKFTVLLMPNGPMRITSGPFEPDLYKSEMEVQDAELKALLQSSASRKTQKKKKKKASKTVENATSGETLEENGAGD
UniProt P51855: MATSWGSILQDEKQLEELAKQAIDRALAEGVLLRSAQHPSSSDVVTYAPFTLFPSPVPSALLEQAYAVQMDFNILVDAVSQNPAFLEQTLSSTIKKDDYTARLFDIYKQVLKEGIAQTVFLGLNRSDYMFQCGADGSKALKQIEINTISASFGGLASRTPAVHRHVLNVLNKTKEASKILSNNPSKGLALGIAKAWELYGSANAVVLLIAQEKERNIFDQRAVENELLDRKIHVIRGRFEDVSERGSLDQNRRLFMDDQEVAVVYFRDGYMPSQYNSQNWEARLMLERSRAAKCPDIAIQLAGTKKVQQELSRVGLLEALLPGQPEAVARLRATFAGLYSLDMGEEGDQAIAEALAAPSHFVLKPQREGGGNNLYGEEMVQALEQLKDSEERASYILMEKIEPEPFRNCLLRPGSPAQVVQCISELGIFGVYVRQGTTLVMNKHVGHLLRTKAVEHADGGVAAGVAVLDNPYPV
UniProt P40142: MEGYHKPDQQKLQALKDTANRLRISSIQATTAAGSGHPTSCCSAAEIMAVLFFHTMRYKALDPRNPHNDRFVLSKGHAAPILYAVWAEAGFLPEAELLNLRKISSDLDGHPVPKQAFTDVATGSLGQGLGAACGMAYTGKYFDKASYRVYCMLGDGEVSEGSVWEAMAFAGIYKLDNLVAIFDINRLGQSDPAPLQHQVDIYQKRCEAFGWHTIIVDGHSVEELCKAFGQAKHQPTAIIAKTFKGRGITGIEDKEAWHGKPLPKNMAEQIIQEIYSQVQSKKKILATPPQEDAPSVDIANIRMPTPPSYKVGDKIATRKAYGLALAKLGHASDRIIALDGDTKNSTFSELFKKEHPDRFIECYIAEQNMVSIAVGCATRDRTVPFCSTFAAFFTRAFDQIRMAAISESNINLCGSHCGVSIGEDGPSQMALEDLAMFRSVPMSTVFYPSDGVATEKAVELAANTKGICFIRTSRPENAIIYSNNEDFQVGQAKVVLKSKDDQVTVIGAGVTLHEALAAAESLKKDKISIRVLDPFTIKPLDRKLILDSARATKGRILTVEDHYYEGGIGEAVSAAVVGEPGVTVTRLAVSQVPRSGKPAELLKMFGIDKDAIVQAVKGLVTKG
UniProt P53994: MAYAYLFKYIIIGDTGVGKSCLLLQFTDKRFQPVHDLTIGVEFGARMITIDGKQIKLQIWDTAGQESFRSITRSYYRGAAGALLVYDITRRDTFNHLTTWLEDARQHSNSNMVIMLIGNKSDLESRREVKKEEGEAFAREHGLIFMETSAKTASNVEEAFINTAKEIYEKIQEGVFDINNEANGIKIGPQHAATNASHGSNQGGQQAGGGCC

The other results are listed elsewhere or left out. Most entries show no effect beyond the scatter of the controls.

Compound in the test: CN[C@@H]1C[C@H]2O[C@@](C)([C@@H]1OC)n1c3ccccc3c3c4c(c5c6ccccc6n2c5c31)C(=O)NC4 [staurosporine]
Briefly: log2 fold change of tryptic peptide abundance, ligand vs vehicle (limited proteolysis) (log2 ratio); higher = more trypsin-susceptible (destabilized). Conditions: ligand concentration: 20 uM; sample: mouse liver crude lysate; replicate design: treated separately.
As for “UniProt P38060 (peptide sequence: SIVPTPVKIR, peptide start residue: 49)”, the log2 fold change worked out at 0.323.
The value for “UniProt P43276 (peptide sequence: ALAAGGYDVEKNNSR, peptide start residue: 65)” was -0.118; that for “UniProt P35802 (peptide sequence: SKEEQELHDIHSTR, peptide start residue: 256)” was 0.111; that for “UniProt P47876 (peptide sequence: WKEPCQR, peptide start residue: 185)” was -0.147.
On to “UniProt P39039 (peptide sequence: VKSLCTELQGTVAIPR, peptide start residue: 142)”, for which the log2 fold change was found to be 0.408.
In the case of “UniProt P41245 (peptide sequence: AAQMMGEK, peptide start residue: 58)” it was -0.32; in that of “UniProt P47740 (peptide sequence: SPCYIDRDCDLDVACRR, peptide start residue: 212)”, 0.734; in that of “UniProt P51949 (peptide sequence: EQEELEEALEVERQEHEQR, peptide start residue: 143)”, -0.411.
The value for “UniProt P35951 (peptide sequence: SQDGYTYPSR, peptide start residue: 843)” was 0.0654; that for “UniProt P52927 (peptide sequence: KQQQEPTCEPSPK, peptide start residue: 34)” was -0.282.
In the case of “UniProt P52480 (peptide sequence: EAEAAIYHLQLFEELRR, peptide start residue: 384)” it was 0.174; in that of “UniProt P39061 (peptide sequence: ASQGLELER, peptide start residue: 642)”, -0.295.
For “UniProt P40694 (peptide sequence: EKGNFRSEIK, peptide start residue: 314)”, the log2 fold change came to 0.435.
In the case of “UniProt P41317 (peptide sequence: VKALCSEFQGSVATPR, peptide start residue: 147)” it was -0.162.
In the case of “UniProt P48428 (peptide sequence: VMYEKEAK, peptide start residue: 24)” it was -0.236; in that of “UniProt P45377 (peptide sequence: ELFPKDDQGR, peptide start residue: 121)”, 0.0952.
The value for “UniProt P50608 (peptide sequence: SAMPVDAPLCLR, peptide start residue: 358)” was 0.15; that for “UniProt P50427 (peptide sequence: RPLTPEAEPR, peptide start residue: 520)” was 0.538; that for “UniProt P40224 (peptide sequence: FFESHIAR, peptide start residue: 34)” was 0.184.
Regarding “UniProt P35492 (peptide sequence: LTVGWLGR, peptide start residue: 22)”, the log2 fold change came to 0.107.
For “UniProt P35831 (peptide sequence: HDAGGIHTEASADSPPAFSDKK, peptide start residue: 721)”, the log2 fold change is -0.144.
In the case of “UniProt P46460 (peptide sequence: GRLQILHIHTAR, peptide start residue: 402)” it was 0.95; in that of “UniProt P48776 (peptide sequence: MNPIIHK, peptide start residue: 381)”, -0.426.
In the case of “UniProt P50580 (peptide sequence: MGVVECAKHELLQPFNVLYEK, peptide start residue: 291)”, the log2 fold change is 0.213.
In the case of “UniProt P51855 (peptide sequence: ASYILMEK, peptide start residue: 393)” it was 0.12.
For “UniProt P40142 (peptide sequence: KAYGLALAK, peptide start residue: 319)”, the log2 fold change stood at 0.171.
With “UniProt P53994 (peptide sequence: KEEGEAFAR, peptide start residue: 131)”, the log2 fold change was -0.307.
On to “UniProt P52432 (peptide sequence: VVLGEFGVR, peptide start residue: 14)”, for which the log2 fold change was -0.0759.
The value for “UniProt P51141 (peptide sequence: SQASAVAPGLPPLHPLTK, peptide start residue: 632)” was -0.267; that for “UniProt P51448 (peptide sequence: DSLYAEVQK, peptide start residue: 154)” was 0.202.
For the target “UniProt P43006 (peptide sequence: SADCSVEEEPWKR, peptide start residue: 558)”, the log2 fold change was -0.206.
